These are yes or no findings as the source states them, for the method shown.
Target: cytochrome c with substitutions K8E/K27E/E62K/E69K/K72E/K86E/K87E/E90K (horse) (UniProt P00004)
Test: dynamic light scattering; Zetasizer Nano ZS, He-Ne laser 633 nm; basic medium (50 mM Hepes/Tris pH 7.6, 0.1 mM EDTA, 50 mM KCl); CytC 50 μM; monomer to dimer by particle size (3 nm against 6 nm); both purified

Amino acid sequences for entries named in this document (tags omitted). A change or cut given only in a name is not applied to a line headed by its entry. Chains listed by the source or under a name are the forms on record and can include a tag or linker.
cytochrome c with substitutions K8E/K27E/E62K/E69K/K72E/K86E/K87E/E90K (P00004, form named): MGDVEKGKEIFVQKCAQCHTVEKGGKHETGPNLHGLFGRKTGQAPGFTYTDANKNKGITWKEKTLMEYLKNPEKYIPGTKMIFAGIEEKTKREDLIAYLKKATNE

binding: no binding (tested: 50 μM)
Substance: cytochrome c with substitutions K8E/K27E/E62K/E69K/K72E/K86E/K87E/E90K (from UniProt P00004 1-105)
